Reference: PubChem BioAssay AID504467 (National Center for Advancing Translational Sciences (NCATS), 2011)
About 7,700 (2.3%) of roughly 330,000 compounds were called active. Inconclusive means that the source gave no clear call. Such entries were picked first, then a sample of the others. Calls follow the shape of the dose curve; as a rule, active = well fitted inhibition curve with a large enough effect; inconclusive = small, poorly fitted or top-dose-only effect, or effect the other way; inactive = flat fitted curve, though single readings scatter. Potencies beside an inconclusive call are fits to weak or partial responses and may not hold up.

Experiment: qHTS screen for small molecules that inhibit ELG1-dependent DNA repair in human embryonic kidney (HEK293T) cells expressing luciferase-tagged ELG1; also: nearly all actives have a fitted effect of over 55% in size
Conditions: HEK293T ELG1-luciferase reporter, luminescence, 16 h, DNA damage induced by 5-fluorouridine; series mostly up to 46.1 µM
How it was run: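 In this reporter screen, reduction of luminescence relative to DMSO vehicle indicated activity. Compounds and 5-fluorouridine were added together to 2,000 cells per well, incubated for 16 hr at 37 °C, then developed with ONE-Glo.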
Potency is read from the fitted curve at half-maximal effect.

For `O=C(O)c1ccc(-c2nc3scc(-c4ccccc4)c3c(=O)[nH]2)cc1`, which Potency is on record?
The Potency was “inactive”.

Which Potency does the source give for `CC(C)(C)c1ccc(C(=O)NCCOc2ccccc2F)cc1` here?
Its Potency is inconclusive: 0.461 µM [activator, full curve].

Which Potency does the source give for `CCOC(=O)N/N=C\c1sccc1C` here?
Its Potency is inconclusive: 18.4 µM [activator, single point].

For `C/C(=N/NC(=O)c1cccc(N2CCCC2=O)c1)c1ccc(Br)cc1`, which Potency is on record?
The Potency was “inactive”.

With `O=[N+]([O-])c1ccc(/C=N/n2c(-c3ccccc3)n[nH]c2=S)cc1` as the compound, how does the Potency read?
Its Potency is “inactive”.

For `Cc1ccc(C(C)C)c(OCc2nn(CC(=O)c3ccc(OC(F)F)cc3)c3[n+]2CCCCC3)c1`, which Potency is on record?
The Potency was inconclusive: 20.6 µM [inhibitor, single point].

For `O=C(CN1CCN(c2ccccn2)CC1)Nc1ccccc1Br`, which Potency is on record?
The Potency was inconclusive: 29.1 µM [inhibitor, partial curve, poor fit].

For `CC1=C(C)C(=O)N(c2ccccn2)C1=O`, which Potency is on record?
Its Potency is “inactive”.

With `COc1ccc(C(CCN2CCCC(C)C2)c2c(OC)cc(OC)c3c(C)cc(=O)oc23)cc1` (centres undefined) as the compound, how does the Potency read?
The Potency was inconclusive: 11.6 µM [activator, partial curve, poor fit].

For `Cc1ccc(NC2=CC(=O)CC(c3ccccc3)C2)cc1` (centres undefined), which Potency is on record?
Its Potency is inconclusive: 6.51 µM [inhibitor, single point].

Which Potency does the source give for `CN1CCN(c2nc(-c3ccccc3)ncc2S(=O)(=O)c2ccccc2)CC1` here?
Its Potency is “inactive”.

With `N#C/C(=C(/O)COC(=O)Cc1c[nH]c2ccccc12)c1nc2ccccc2[nH]1` as the compound, how does the Potency read?
The Potency was “inactive”.

For `O=C(CSc1nc(Nc2ccccc2)nc(N2CCOCC2)n1)Nc1ccccc1Cl`, which Potency is on record?
The Potency was inconclusive: 29.1 µM [inhibitor, single point].

Which Potency does the source give for `CSCC(=O)N1CCCC(CNC(=O)c2ccc(-c3ccccc3)cc2)C1` (centres undefined) here?
The Potency was inconclusive: 18.3 µM [inhibitor, single point].

For `Cn1c(C(=O)N2COCC2(C)C)cc2c(=O)n3ccccc3nc21`, which Potency is on record?
The Potency was inconclusive: 13 µM [activator, partial curve].

Which Potency does the source give for `CCOC(=O)C1=C(CN2CCN(C(=O)OCC)CC2)NC(=O)NC1c1ccc2c(c1)OCO2` (centres undefined) here?
The Potency was inconclusive: 20.6 µM [inhibitor, partial curve, poor fit].

With `O=C1/C(=C/c2ccc(F)cc2)SC(=S)N1CC(=O)N1CCCCC1c1cccnc1` (centres undefined) as the compound, how does the Potency read?
The Potency was inconclusive: 32.6 µM [inhibitor, partial curve, poor fit].

With `O=C(NCc1ccc2c(c1)OCO2)c1cccc(C(=O)NCc2ccc3c(c2)OCO3)c1` as the compound, how does the Potency read?
The Potency was inconclusive: 23.1 µM [inhibitor, single point].

For `CC(C)CCN1CCC(n2nccc2NC(=O)c2ccc3c(c2)OCO3)CC1`, which Potency is on record?
The Potency was inconclusive: 25.9 µM [activator, single point].
